From PubChem BioAssay AID1487 (National Center for Advancing Translational Sciences (NCATS), 2009)
The list shows a part of the results. The main result of the screen is listed elsewhere. These columns were measured beside it and carry no call. Most of these compounds were active or inconclusive in the main read-out, so they are no random draw. Potencies come from curve fits of mixed quality, noted in brackets.

Assay: qHTS Assay for Modulators of Lamin A Splicing
Details: HeLa LMNA splicing GFP/RFP minigene ratio, 48 h
Method in brief: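 S3 HeLa stable clones carrying a lamin A-EGFP splicing minigene plus DsRed2 were seeded at 600 cells/well in Opti-MEM with 2% FBS, pin-dosed and incubated 48 h at 37°C. Acumen cytometry (488 nm) gave the GFP/RFP total-intensity ratio.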

[1] = measured here: GFP splicing reporter channel
[2] = measured here: RFP viability control channel

Structure (SMILES) | AC50 [1] | AC50 [2]
CCOc1ccc(N2C(=O)C3C(C2=O)C3(c2ccccc2)c2ccccc2)cc1 (stereo unspecified) | 22.4 µM [rising, single point] | 22.4 µM [rising, single point]
CCCCC(=O)NC(=S)Nc1cc([N+](=O)[O-])ccc1OC | – | 22.4 µM [falling, partial curve, poor fit]
Fc1ccc(N2CCN(C(c3cccs3)c3nnnn3C3CCCC3)CC2)cc1 (stereo unspecified) | – | 35.5 µM [rising, single point]
Cc1ccc(S(=O)(=O)N2CCN(c3nc(C)c4c(c3C#N)CC(C)(C)OC4)CC2)cc1 | 0.891 µM [rising, partial curve, poor fit] | 35.5 µM [rising, single point]
CCOc1ccc(C2C(=O)N(C3CCCCCC3)CC(=O)N2CCc2ccc(Cl)cc2)cc1OC (stereo unspecified) | – | 4.47 µM [rising, partial curve, poor fit]
COc1ccc(-c2cc(C(=O)N3CCCc4ccccc43)no2)cc1 | 11.2 µM [rising, partial curve] | 7.08 µM [rising, partial curve]
OCC1(Cc2ccccc2)CCCN(Cc2cn[nH]c2-c2ccccc2)C1 (stereo unspecified) | 35.5 µM [falling, partial curve, poor fit] | 35.5 µM [falling, partial curve, poor fit]
C=CCOc1ccc2c(c1)C(=NO)c1cc(OCC=C)ccc1-2 | 20 µM [rising, single point] | 12.6 µM [rising, partial curve]
CCCN(CC1CC1)C(=S)Nc1ccc(Oc2ccccc2)cc1 | – | 35.5 µM [rising, single point]
Cc1ccc(Nc2nc(-c3c(C)nc4ccccn34)cs2)cc1 | – | 0.141 µM [rising, full curve]
COc1ccc(-c2noc(CN(C)S(=O)(=O)c3ccc(Cl)cc3)n2)cc1OC | – | 35.5 µM [rising, single point]
CCCOc1ccc(CN(CCC#N)C(=S)NC(=O)c2ccccc2)cc1 | – | 25.1 µM [rising, single point]
Fc1ccc2[nH]c3c(NCCN4CCOCC4)ncnc3c2c1 | 11.2 µM [rising, partial curve, poor fit] | –
CCc1cc2c3c(c(=O)oc2cc1OC)CCCC3 | 35.5 µM [rising, single point] | –
CC(C)(C)Nc1c(-c2cccs2)nc2ccccn12 | 6.31 µM [rising, single point] | –
O=[N+]([O-])c1cc(-c2n[nH]c(-c3ccccc3)n2)cc([N+](=O)[O-])c1 | – | 3.55 µM [rising, single point]
Cc1cc(C(=O)OCC(=O)Nc2cccnc2Cl)c2ccccc2n1 | – | 0.0562 µM [falling, full curve, poor fit]
Cc1ccc(/C(N)=N/OC(=O)Cc2cccc3ccccc23)cc1 | – | 35.5 µM [rising, single point]
CCN(CC)c1ccc(C2C(C(=O)OC(C)C)C(=O)CC(C)(O)C2C(=O)OC(C)C)cc1 (stereo unspecified) | – | 31.6 µM [rising, single point]
COc1cc(CSc2nnnn2-c2ccc(C)cc2)cc(OC)c1OC | – | 3.16 µM [rising, full curve]

Structure (SMILES) | AC50 [1] | AC50 [2]
Cc1cccc(CNc2nc(-c3cccnc3)nc3ccccc23)c1 | – | 22.4 µM [falling, partial curve, poor fit]
c1ccc(C(Cc2nc(-c3ccncc3)no2)c2ccccc2)cc1 | – | 3.55 µM [rising, full curve]
Fc1ccccc1Nc1ncnc2c1nc1n2CCCCC1 | 0.794 µM [falling, full curve] | –
Cc1cccc(CCNC(=O)c2c[nH]c3ccc(S(=O)(=O)Nc4ccccc4F)cc3c2=O)c1 | – | 11.2 µM [falling, partial curve, poor fit]
CC(C)c1ccc(S(=O)(=O)c2cc3cc(Br)ccc3oc2=O)cc1 | – | 5.62 µM [rising, single point]
O=c1cc(-c2ccccc2Cl)oc2ccc([N+](=O)[O-])c(O)c12 | – | 1.78 µM [rising, full curve]
COc1cccc(-c2nnc3sc(CN4CCCCC4)cn23)c1 | – | 1.78 µM [rising, full curve]
CS(=O)(=O)Nc1cccc(-c2nccc(Nc3ccc(F)cc3)n2)c1 | 4.47 µM [falling, partial curve, poor fit] | 6.31 µM [falling, partial curve, poor fit]
CCOCC(=O)Nc1cc(C(=O)Nc2ccc(F)cc2)ccc1Cl | 0.708 µM [falling, single point] | –
CCN(c1ccccc1)S(=O)(=O)c1cc([N+](=O)[O-])ccc1N | – | 20 µM [rising, single point]
Cc1ccccc1-n1c(C)cc(/C=C(\C#N)C(=O)NCC2CCCO2)c1C (stereo unspecified) | – | 12.6 µM [rising, single point]
c1ccc(CNc2ncnc3ccc(-c4ccc5c(c4)OCO5)cc23)cc1 | 35.5 µM [falling, single point] | 35.5 µM [falling, single point]
COc1ccc(C(=O)Nc2cccc(C)c2)cc1S(=O)(=O)N1CCOCC1 | – | 14.1 µM [rising, single point]
O=C(O)c1cc(=O)c2c(OCC(O)COc3cccc4oc(C(=O)O)cc(=O)c34)cccc2o1 | – | 0.708 µM [falling, partial curve, poor fit]
NC(=S)Cc1nc(-c2ccccc2)cs1 | – | 12.6 µM [rising, partial curve, poor fit]
Fc1ccc(-n2ncc3c(N4CCN(c5ccccc5F)CC4)ncnc32)cc1 | 0.00316 µM [falling, full curve, poor fit] | –
N#CCCn1nc(-c2ccc(Br)cc2)cc1Nc1ccccc1NC(=O)C(F)(F)F | 14.1 µM [rising, partial curve] | 10 µM [rising, partial curve]
CNCCC(Oc1ccccc1C)c1ccccc1 (stereo unspecified) | 0.0141 µM [falling, full curve, poor fit] | –
COC(=O)CCCC1=CC2=CC(=O)C(C)(OC(=O)c3cccs3)C(=O)C2=CN1Cc1ccc2c(c1)OCO2 (stereo unspecified) | – | 0.000891 µM [falling, full curve, poor fit]
CCN(CC)S(=O)(=O)c1cc(C(=O)N2CCc3ccccc32)ccc1Cl | – | 12.6 µM [rising, partial curve]

Structure (SMILES) | AC50 [1] | AC50 [2]
CCC(C)c1ccc(NC(=S)NCc2ccccn2)cc1 (stereo unspecified) | – | 3.16 µM [falling, partial curve]
Cc1ccc(C2c3[nH]c4ccccc4c3CCN2C(=O)CCc2ccccc2)cc1 (stereo unspecified) | – | 14.1 µM [rising, partial curve, poor fit]
CCc1ccc(NC(=O)CS(=O)CC(=O)NCC2OCCc3ccccc32)cc1 (stereo unspecified) | 35.5 µM [rising, single point] | 35.5 µM [rising, single point]
CC(C)(C)CC(=O)Nc1cc(S(=O)(=O)N2CCCCCC2)ccc1Cl | 11.2 µM [rising, partial curve, poor fit] | 25.1 µM [rising, single point]
Cc1nn(CC2CC2)c(=O)n1-c1ccccc1 | 0.00447 µM [rising, full curve, poor fit] | –
CCOC(=O)c1cnc(SCC(=O)Nc2cccc(OC)c2)nc1N | – | 35.5 µM [rising, single point]
O=S(c1ccc2ccccc2c1)c1cnns1 (stereo unspecified) | 1.12 µM [falling, partial curve] | 28.2 µM [falling, partial curve]
Cc1onc(-c2ccccc2Cl)c1C(=O)NC(=S)Nc1ccccc1C(N)=O | 1.41 µM [rising, partial curve] | –
Cc1ccc(S(=O)(=O)N2CCN(Cc3nc4sc(C)c(C)c4c(=O)[nH]3)CC2)cc1 | – | 0.0355 µM [rising, partial curve, poor fit]
Cc1ccc(NC(=O)c2ccc3c(c2)OCCO3)cc1S(=O)(=O)Nc1cccc(Cl)c1 | 35.5 µM [falling, single point] | –
COC(=O)N/N=C/c1ccc(OCCSc2ccc(Cl)cc2)c(OC)c1 | – | 14.1 µM [rising, single point]
C[C@@H](C(=O)O)[C@H]1C[C@]1(C)[C@H](NC(=O)OCc1ccccc1)c1ccccc1 | 8.91 µM [falling, partial curve, poor fit] | 22.4 µM [falling, partial curve, poor fit]
Cc1ncsc1CCC(=O)N1CCCC(C(=O)c2ccc3c(c2)OCO3)C1 (stereo unspecified) | 0.01 µM [falling, full curve, poor fit] | 0.01 µM [falling, full curve, poor fit]
O=S(=O)(Nc1ccc(-c2nc3cccnc3s2)cc1)c1ccc(Cl)s1 | – | 12.6 µM [rising, partial curve]
CCn1c(C)nc2cc(C(=O)N/N=C/c3ccccc3C)ccc21 | – | 0.708 µM [falling, full curve]
COc1ccc(Nc2nc3ccccc3nc2-n2nc(C)cc2C)cc1 | – | 12.6 µM [falling, partial curve, poor fit]
COC(=O)C1NN=C(C(=O)c2ccc(Cl)cc2)C1c1ccc(OC)cc1 (stereo unspecified) | – | 35.5 µM [rising, single point]
O=C(c1nn2c(C(F)(F)F)cc(-c3cccs3)nc2c1Cl)N1CCCc2ccccc21 | – | 22.4 µM [rising, single point]

A different layout for part of the listing above.
Structure (SMILES)	AC50 [1]	AC50 [2]
CCC(C)c1ccc(NC(=S)NCc2ccccn2)cc1 (stereo unspecified)	–	3.16 µM [falling, partial curve]
Cc1ccc(C2c3[nH]c4ccccc4c3CCN2C(=O)CCc2ccccc2)cc1 (stereo unspecified)	–	14.1 µM [rising, partial curve, poor fit]
CCc1ccc(NC(=O)CS(=O)CC(=O)NCC2OCCc3ccccc32)cc1 (stereo unspecified)	35.5 µM [rising, single point]	35.5 µM [rising, single point]
